According to publication PMC9582336:

Target: T1, CFP-tagged wild type (WT) inhibitor-2 (I-2) (UniProt P41236)
T1 sequence: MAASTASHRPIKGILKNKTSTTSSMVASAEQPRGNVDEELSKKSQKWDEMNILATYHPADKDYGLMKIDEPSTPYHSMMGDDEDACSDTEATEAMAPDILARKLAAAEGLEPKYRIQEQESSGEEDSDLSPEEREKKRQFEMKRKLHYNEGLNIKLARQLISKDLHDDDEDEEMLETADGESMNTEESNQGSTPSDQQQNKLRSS
Assay: FRET or BRET; FLIM-FRET in living HEK293 cells 2 days after co-transfection; lifetime of the CFP donor measured by two-photon excitation (850 nm) and time-correlated single photon counting, double exponential fit; a shorter CFP lifetime with a YFP-tagged partner is read as FRET; in one panel rLuc-I-2 was co-expressed as a third protein

YFP-PP1γ (enzyme)
binding: binds

Results are given in words; binding and its absence hold for the method and conditions named. In cells and extracts the contact can be indirect. A result given as binding can be weak or reduced; the word gives no strength. Tags and fused reporters may be left off the sequences shown.
